Screen size: about 300,000 compounds; about 3,700 (1.2%) were called active. Inconclusive means that the source gave no clear call. Such entries were picked first, then a sample of the others. Calls follow the shape of the full dose curve; tested in HEK293 cells. A potency beside an inconclusive call is a rough fit, not a confirmed value.
test: qHTS for Inhibitors of binding or entry into cells for Lassa Virus; details: Lassa virus pseudotype entry inhibition, cell reporter; series mostly up to 37.9 µM; also: nearly all actives have a fitted effect of over 50% in size
Potency is read from the fitted curve at half-maximal effect.

SMILES | Potency
O=C1/C(=C/c2ccccc2)CCC1C1CCCC1 (stereo unspecified) | inconclusive: 35.5 µM [inhibitor, single point]
C[C@H]1C[C@@H](C)O[C@@]2(C1)C(=O)Nc1ccccc12 | inconclusive: 1.19 µM [activator, single point]
Cc1ccc2[nH]c(C)c(CCNC(=O)NC3CCCCC3)c2c1 | inconclusive: 11.2 µM [inhibitor, partial curve, poor fit]
Cc1ccc(C(=O)c2ccccc2C(=O)OCC(=O)N2CCCC2)cc1 | inactive
CCN(CC)S(=O)(=O)c1cc(NC(=O)c2cccc(N3C(=O)CCC3=O)c2)ccc1Cl | inactive
CCCCC(=O)Nc1ccccc1C(=O)OCC(=O)c1ccc2c(c1)OCCO2 | inconclusive: 11.2 µM [inhibitor, partial curve]
NNC(=O)CN1C(CN2CCOCC2)=Nc2ccc(Br)cc2C1c1ccccc1 (stereo unspecified) | inactive
CCOc1ccc(-c2cc(C(=O)N3CCN(c4ccc(C)cc4)C(C)C3)c3ccccc3n2)cc1 (stereo unspecified) | inconclusive: 1.12 µM [inhibitor, full curve, poor fit]
CCCCn1c(=O)[nH]c(=O)c2c1nc(-c1ccc3ccccc3c1)n2CC | inconclusive: 0.562 µM [inhibitor, full curve, poor fit]
CC(C)c1ccc(N=C2N=C(N)c3ccccc32)cc1 | inconclusive: 7.3 µM [inhibitor, partial curve, poor fit]
COC(=O)CC=C[C@@H](C)[C@@H](C=NOCC[C@@H]1C=C[C@H](OC(C)=O)[C@@H](COC(C)=O)O1)NS(=O)(=O)c1ccc(C)cc1 | inconclusive: 0.075 µM [activator, full curve, poor fit]
COc1cc(-c2nnn(CC(=O)NCc3ccccc3)n2)cc(OC)c1OC | inconclusive: 10 µM [inhibitor, partial curve, poor fit]
CNc1ccc(/C=C/C(=O)c2ccc(C)cc2)cc1[N+](=O)[O-] | inactive
Cc1cc(N(C)Cc2ccccc2)nc(-c2ccccc2)n1 | inactive
O=C(NCc1ccco1)c1c[nH]c2ccc(S(=O)(=O)N3CCOCC3)cc2c1=O | inconclusive: 8.91 µM [inhibitor, partial curve, poor fit]
CN(C)c1ccc(/C=N/N=C/c2ccccc2O)cc1 | inconclusive: 14.1 µM [inhibitor, single point]
CCC(=O)N1CCc2cc(S(=O)(=O)NCCC(=O)Nc3ccc(OC)c(OC)c3)ccc21 | inactive
COc1cccc(C(=O)Nc2nnc(SCC(=O)Nc3ccc(NC(C)=O)cc3)s2)c1 | inconclusive: 10 µM [inhibitor, partial curve, poor fit]
CCOC(=O)C1CCN(C(=O)c2n[nH]c(=O)c3ccccc23)CC1 | inactive
COc1ccc(NC(=O)Cc2cccs2)cc1S(=O)(=O)N1CCCCC1 | active: 1 µM
Cc1cccc(CSc2nc3c(c(-c4cccs4)c2C#N)CN(C)CC3)c1 | inconclusive: 29.1 µM [inhibitor, single point]
CCOC(=O)c1scc(-c2ccccc2)c1S(=O)(=O)N1CCN(c2ccccc2OC)CC1 | inconclusive: 22.4 µM [inhibitor, partial curve, poor fit]

SMILES | Potency
COc1ccc(NC(=O)c2oc3ccc(S(=O)(=O)N(C)C4CCCCC4)cc3c2C)cc1 | inconclusive: 28.2 µM [inhibitor, single point]
NC(=S)N/N=C/c1ccccc1OCCSc1ccc(Cl)cc1 | active: 3.66 µM
Cn1ncc(N=Cc2c(O)ccc3ccccc23)c1C(=O)Nc1cccc(Cl)c1 | inconclusive: 4.47 µM [inhibitor, full curve, poor fit]
O=C(Nc1ccccc1C(=O)N/N=C/c1ccncc1)c1ccccc1 | inconclusive: 35.5 µM [inhibitor, single point]
CC(=O)c1cccc(NS(=O)(=O)c2ccc(N/C=C/C(=O)c3ccc(F)cc3)cc2)c1 | inconclusive: 20 µM [inhibitor, single point]
CC(C)(C)NC(=O)c1ccc2c3c(cccc13)CC2 | inactive
CCc1ccc(NC(=O)CCNS(=O)(=O)c2ccc3c(c2)CCCC(=O)N3)cc1 | inconclusive: 2 µM [activator, full curve, poor fit]
OC(C#CCN1CCCC1)(c1ccccc1)c1ccccc1 | inactive
CCOC(=O)N1CCN(C(=O)c2ccccc2N(Cc2ccccc2)S(=O)(=O)c2ccc(OC)cc2)CC1 | active: 7.08 µM
Cc1ccc(CNC(=O)c2cccc(-n3cnc4cccnc43)c2)cc1 | inactive
Cc1cc(C(=O)OCC(=O)NCc2ccccc2)c(C)o1 | inconclusive: 3.16 µM [inhibitor, partial curve, poor fit]
CCOc1ccc2nc(NC(=O)CN3CCC(n4nnc5cc(F)ccc54)CC3)sc2c1 | inconclusive: 29.1 µM [inhibitor, single point]
O=C(CNc1ccc2ccccc2c1)N/N=C/c1ccc(OC(=O)/C=C/c2ccco2)cc1 | inconclusive: 8.2 µM [inhibitor, partial curve]
COc1ccc(-c2csc(N(CCCN(C)C)C(=O)c3ccc(C(C)(C)C)cc3)n2)cc1 | inconclusive: 35.5 µM [inhibitor, partial curve, poor fit]
CN1c2ccccc2N(C)C1c1ccc2c(c1)OCO2 | inconclusive: 18.3 µM [activator, single point]
N=c1c2c(n(Cc3ccc(Cl)cc3)c3c1CCC3)CCC2 | inconclusive: 10.3 µM [inhibitor, partial curve]
CC(C)(C)c1ccc(C(=O)NC(Cc2c[nH]c3ccccc23)C(=O)OCC(=O)c2ccc(Cl)cc2)cc1 (stereo unspecified) | inconclusive: 7.94 µM [inhibitor, partial curve, poor fit]
CCOc1ccc(NC(=O)Cn2cc(S(=O)(=O)N3CCN(c4ccccc4F)CC3)c3ccccc3c2=O)cc1 | inactive
CSc1nc(S(C)(=O)=O)nc2[nH]c(=O)[nH]c12 | inconclusive: 4.47 µM [activator, single point]
O=C(NCCc1csc2nc(-c3cccc(F)c3)nn12)c1ccc(Br)o1 | inactive
O=c1[nH]c(=O)n(Cc2ccccc2Cl)c(O)c1/C=C1/C=CC=N1 | inconclusive: 6.31 µM [inhibitor, partial curve, poor fit]
COc1ccc(N(CC(=O)N2CCN(c3ccc(F)cc3)CC2)S(=O)(=O)c2c(C)n[nH]c2C)cc1 | inactive

SMILES | Potency
Cc1cc(Br)ccc1OCC(=O)NNC(=O)C(=O)Nc1ccccc1 | inactive
O=C(Cc1ccccc1)Nc1ccc(NC(=O)c2ccco2)nc1 | inconclusive: 0.0052 µM [activator, full curve, poor fit]
Cc1ccc(CNC(=O)CSc2nc3n[nH]c(C)c3c(=N)n2-c2cccc(C)c2)cc1 | inconclusive: 25.1 µM [inhibitor, single point]
Cc1ccc(NC(=O)Cn2cc(S(=O)(=O)c3ccccc3)c(=O)c3cc4c(cc32)OCO4)cc1 | inconclusive: 35.5 µM [inhibitor, single point]
Cc1nc(-c2ccc3c(c2)CCC(=O)N3)cs1 | inactive
Cc1nonc1CN(C)C(=O)CC1C(=O)NCCN1Cc1ccc(F)c(F)c1 (stereo unspecified) | inactive
O=c1[nH]c(Cc2cccs2)nc2ccccc12 | inactive
CC(C)OC(=O)c1cc2ccccc2oc1=O | inconclusive: 9.2 µM [activator, partial curve]
C=CCN1C(=O)C(Cc2ccc(F)cc2)S/C1=N/N=C/c1ccco1 (stereo unspecified) | inactive
CC(=O)Nc1ccc(S(=O)(=O)Nc2cccc(-c3nc4ccccc4o3)c2)cc1 | inconclusive: 32.6 µM [inhibitor, single point]
C/C(=N\N1CCCCCC1)c1c(O)n(-c2ccc(Cl)cc2)c(=O)[nH]c1=O | inconclusive: 0.891 µM [inhibitor, full curve, poor fit]
CSc1ncc(CN2CCN(CCC(C)C)C(CCO)C2)cn1 (stereo unspecified) | inconclusive: 25.1 µM [activator, partial curve, poor fit]
O=C(Nc1cccc(S(=O)(=O)NC2=NCCC2)c1)c1c(F)cccc1Cl | inactive
COc1ccc(C2c3[nH]c4ccc(OC)cc4c3CCN2C(=O)Nc2ccccc2)cc1 (stereo unspecified) | inconclusive: 1 µM [inhibitor, full curve, poor fit]
Cc1csc(=O)n1CC(=O)OCC(=O)c1c(N)n(CC(C)C)c(=O)n(C)c1=O | inactive
CCOC(=O)c1cnc2ccc(OC)cc2c1Nc1ccc2c(c1)OCCO2 | inconclusive: 35.5 µM [inhibitor, single point]
COc1cccc(NS(=O)(=O)c2ccc3c(c2)CCCN3C(=O)C2CCC2)c1 | inconclusive: 7.08 µM [inhibitor, partial curve, poor fit]
Cc1ccc(C(=O)Nc2cccc(C(=O)O)c2)cc1S(=O)(=O)N1CCOCC1 | inconclusive: 8.2 µM [inhibitor, partial curve, poor fit]
O=[N+]([O-])c1ccc(N2CCCC(C(F)(F)F)C2)c2ccncc12 (stereo unspecified) | inconclusive: 6.31 µM [inhibitor, full curve]
O=C(Nc1nc(=O)c2ccccc2s1)c1ccc(Cl)cc1 | inactive
COc1ccc(-n2cc(CNCCc3nc(C)cc(C)n3)c(-c3ccccc3Cl)n2)cc1 | inconclusive: 35.5 µM [inhibitor, single point]
CC(C)c1ccc(Nc2nc3c(S(=O)(=O)c4ccc(Br)cc4)nnn3c3ccsc23)cc1 | inconclusive: 35.5 µM [inhibitor, single point]

From PubChem BioAssay AID540256 (National Center for Advancing Translational Sciences (NCATS), 2011)
